Data: doi:10.1101/769059
Read-outs that look alike come from different tables or passages of the source. Results are given in words; binding and its absence hold for the method and conditions named. Binding seen in cells or lysates may run through a third protein. These calls come from enrichment with a bait or labelling near it, and not all partners need be listed. For part of these data: Sequences can lack the tags named with a protein.

What was measured:
Experiment in all cases: affinity purification with mass spectrometry
[1] = target: wild-type GFP-ATG5 (mouse) (UniProt Q99J83)
[2] = target: wild-type GFP-ATG5 (mouse) (UniProt Q99J83); remark: listed apart in the source
K130R GFP-ATG5 (mouse) = target: T1, K130R GFP-ATG5 (mouse) (UniProt Q99J83)
T1 sequence: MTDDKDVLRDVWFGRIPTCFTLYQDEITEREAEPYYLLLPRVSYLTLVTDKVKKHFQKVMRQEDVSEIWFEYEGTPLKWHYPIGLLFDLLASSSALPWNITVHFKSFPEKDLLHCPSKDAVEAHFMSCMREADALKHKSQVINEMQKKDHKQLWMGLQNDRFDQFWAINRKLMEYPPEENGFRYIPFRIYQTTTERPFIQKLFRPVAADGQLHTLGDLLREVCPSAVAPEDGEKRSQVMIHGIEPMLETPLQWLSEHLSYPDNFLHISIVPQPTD

Measured: binding

B1: TECPR1 (protein, UniProt Q80VP0 1-1166)
chain: MPTSVLWAVDLFGRVYTLSTAGQYWELCKDVQLEFKRVSAATQCCWGIAGDNQVYLYVCSSDVPIRHREEAYENQRWNPMGGFCEKLLPSDRWPWSDVSGLQHRPLDGVALPSPHWEWESDWYVDENFGGEPTEKGGWTYAMDFPATYTRDKKWNSCVRRRKWIRYRRYKSRDSWAKIPSKDDPKELPDPFNDLSVGGWEITEEPVGRLSVWAVSLQGKVWYREDVSHPNPEGSSWSLVETPGEVVQISCGPHDLIWATLWEGQALVREGVCRNNPKGSYWSMVEPPGSENGIMHVSAGVSVVWAITKDRKVWFRRGVNSHNPCGTSWIEMVGEMTMVNVGLNDQVWGISCEDRAVYFRQGVTPSELSGKTWKAIVVGRESDRSHSGSSSSLLSAGCFFGDEVRGSGTESAPSDTDASLEVERQGPEQPLPKEALDNSTNLKGSLSKGHETSGNTDHSTENACLTEGKEKAPETSRSDECRGPASTPAELPWTNIDLKEPKKVSNQPAAGFPETAGLSSLGLFPMGMEEPYGADDHPLWAWVSGGACAVEAGSTLKWFTIQSGLSPSVQTLSLSITPAQTAAWRKQIFQQLTERTKRELESFRHYEQAVEQSVWVKTGALQWWCDWKPHKWVDVRVALEQFTGHDGARDSILFIYYVVHEEKKYLHVFLNEVTVLVPVLNEAKHSFALYTPERTRQRWPVRLAAATEQDMNDWLALLSLSCCESRKVHGRPSPQAIWSVTCKGDIFVSEPSPDLEARERLLPCDQMFWRQMGGHLRIIEANSRGVVWGIGYDHTAWVYTGGYGGGCFQGLASSTSNIYTQSDVKSVYIYENQRWNPVTGYTSRGLPTDRFMWSDVTGLQECTKAGTKPPSLQWTWVSDWYVDFSVPGGTDQEGWQYASDFPASYHGYKTMKDFVRRRCWARKCKLVTSGPWLEVAPITLSDVSIIPESAHADGRGHNVALWAVSDKGDVLCRLGVSELNPAGSSWLHVGTDQPFASVSIGACYQVWAVARDGSAFYRGSVSPSQPAGDCWYHIPSPPKQKLTQVSVGQTSVYALDENGNLWYRAGITPSYPQGSSWEHVSNNVRKVSVGPLDQVWVIANKVQGSHGLSRGTVCRRMGVQPREPKGQGWDYGIGGGWDHISVRANATRVPRNMSRDREARGPGPVCC
binds: [1] | [2] | K130R GFP-ATG5 (mouse)
